Assay: general procedure: solution-phase peptide synthesis; DCC/HOSu; DCC/HOBt

Substance	step yield (coupling step) [%]	other results
N^α -Benzyloxycarbonyl-N^ε -t-butyloxycarbonyl-L-lysyl-O-t-butyl-L-seryl-γ-t-butyl-L-glutamyl-L-valyl-L-valyl-γ-t-butyl-L-glutamic acid methyl ester	65.3	
L-Lysyl-L-seryl-L-glutamyl-L-valyl-L-valyl-L-glutamic acid		step yield (late stage modification step, over three deprotection reactions): 51.4% for the three reactions
γ-t-Butyl-L-glutamyl-L-valyl-L-valyl-γ-t-butyl-L-glutamic acid methyl ester		step yield (late stage modification step): 94%
N^α -Benzyloxycarbonyl-N^ε -t-butyloxycarbonyl-L-lysyl-N^ε -t-butyloxycarbonyl-L-lysyl-γ-t-butyl-L-glutamyl-L-valyl-L-valyl-γ-t-butyl-L-glutamic acid methyl ester	98	

— US4442031A (Hoffmann-La Roche Inc., priority 1983, dated 1984)
